# Experimental data published in PubChem BioAssay AID540276 (National Center for Advancing Translational Sciences (NCATS), 2011).
# About 5,400 (1.8%) of roughly 300,000 compounds were called active. The inconclusive results got no clear call from the source; some entries with a clear call stand among them for comparison. The call rests on the fitted dose curve; tested in HEK293 cells. Where the call is inconclusive, the potency comes from a doubtful curve fit.
# Experiment: qHTS for inhibitors of binding or entry into cells for Marburg Virus
# Settings: Marburg virus pseudotyped entry inhibition, cell reporter; series mostly up to 37.8 µM
# Potency means the concentration at half of the fitted maximal effect.
row,Structure (SMILES),Potency
1,CCn1ccc(C(=O)Oc2ccc(C(C)C)cc2)n1,inactive
2,CCN(CC)CCNC(=O)c1c(C)oc2cc(Br)c(OC)cc12,"inconclusive: 14.6 µM [inhibitor, partial curve, poor fit]"
3,O/N=C1/CCCCC1c1ccccn1 (centres undefined),"inconclusive: 1.12 µM [activator, single point]"
4,CCNS(=O)(=O)c1ccc(S(=O)(=O)N(Cc2ccccn2)C2CCCCC2)cc1,inactive
5,CCCc1cc(=O)[nH]c(Nc2ccc(Cl)cc2)n1,"inconclusive: 12.6 µM [inhibitor, partial curve, poor fit]"
6,c1ccc(CN2CCC(N3CCC(N4CCCCCC4)CC3)CC2)cc1,"inconclusive: 7.94 µM [inhibitor, partial curve, poor fit]"
7,COc1ccc(C(CNC(=O)c2cccc([N+](=O)[O-])c2)N2CCOCC2)cc1 (centres undefined),inactive
8,OC(CNC1CCCc2ccccc21)COc1c(Cl)cccc1Cl (centres undefined),"inconclusive: 28.2 µM [inhibitor, single point]"
9,O=C(Nc1cccc(-c2nc3ccccc3s2)c1)c1cccs1,"inconclusive: 35.5 µM [inhibitor, partial curve, poor fit]"
10,CN(CC(=O)NCC(c1ccccc1)N1CCCC1)S(=O)(=O)c1ccc(Cl)cc1 (centres undefined),"inconclusive: 35.5 µM [inhibitor, partial curve, poor fit]"
11,Cc1ccc(S(=O)(=O)N2CCCCC2)cc1NC(=O)COC(=O)C1CC2C=CC1C2 (centres undefined),inactive
12,COc1ccc(NCc2nnc(SCC(=O)Nc3ccc(OC)cc3OC)o2)cc1,"inconclusive: 11.2 µM [activator, single point]"
13,Cc1ccc2c(c1)sc[n+]2Cc1ccccc1,"inconclusive: 13 µM [activator, partial curve]"
14,Cc1cc(C)c2c(N)c(C(=O)NC3CCCC3)sc2n1,inactive
15,OCC1(Cc2ccccc2)CCN(Cc2cnc(-c3ccc(Cl)cc3)nc2)CC1,"inconclusive: 35.5 µM [inhibitor, single point]"
16,Cc1csc(NC(=O)c2cccnc2Cl)n1,"inconclusive: 6.31 µM [activator, single point]"
17,O=C(O)CSc1cn(Cc2ccccc2)c2ccccc12,"inconclusive: 0.891 µM [inhibitor, full curve, poor fit]"
18,N#CC1=C2Nc3ccccc3N2C(=O)NC1(c1ccccc1)C(F)(F)F (centres undefined),inactive
19,O=S(=O)(NC1CC2CCC1C2)c1ccc(Br)s1 (centres undefined),"inconclusive: 20 µM [activator, single point]"
20,O=C1C(c2ccc(F)cc2)N(Cc2ccc3c(c2)OCO3)C(=O)CN1C1CCCCCC1 (centres undefined),"inconclusive: 0.146 µM [inhibitor, full curve, poor fit]"
21,c1ccc(CCc2nn3c(C4COc5ccccc5O4)nnc3s2)cc1 (centres undefined),inactive
22,Cc1ccc(-n2cc3ccc([N+](=O)[O-])cc3n2)cc1,"inconclusive: 9.2 µM [inhibitor, partial curve, poor fit]"
23,O=C(c1ccccc1Sc1ccc([N+](=O)[O-])cc1Cl)N1CCOCC1,"inconclusive: 35.5 µM [inhibitor, single point]"
24,O=C(N/N=C/c1ccc(Cl)cc1Cl)c1n[nH]c2c1CCCC2,"inconclusive: 3.55 µM [inhibitor, single point]"
25,Cc1c(C(=O)Nc2ccc(S(=O)(=O)N(C)C3CCN(C)CC3)cc2)oc2c(Cl)cccc12,"inconclusive: 35.5 µM [inhibitor, partial curve, poor fit]"

# Part of the list above, set out differently:
row | Structure (SMILES) | Potency
4 | CCNS(=O)(=O)c1ccc(S(=O)(=O)N(Cc2ccccn2)C2CCCCC2)cc1 | inactive
7 | COc1ccc(C(CNC(=O)c2cccc([N+](=O)[O-])c2)N2CCOCC2)cc1 (centres undefined) | inactive
21 | c1ccc(CCc2nn3c(C4COc5ccccc5O4)nnc3s2)cc1 (centres undefined) | inactive
23 | O=C(c1ccccc1Sc1ccc([N+](=O)[O-])cc1Cl)N1CCOCC1 | inconclusive: 35.5 µM [inhibitor, single point]

# Continued:

row,Structure (SMILES),Potency
1,O=c1cc(C(F)(F)F)[nH]c2c(C(F)(F)F)cccc12,"inconclusive: 29.1 µM [inhibitor, single point]"
2,S=c1[nH]nc(-c2ccc3ccccc3n2)n1Cc1ccccc1,inactive
3,O=P(C1=C(N2CCOCC2)/C(=C\c2ccccc2)CC1)(N1CCOCC1)N1CCOCC1,inactive
4,CC(=O)Nc1ccc(NS(=O)(=O)c2ccccc2)c2ccccc12,inactive
5,CCOC(=O)c1ccc(NC(=S)N2CCN(CCO)CC2)cc1,"inconclusive: 0.631 µM [inhibitor, single point]"
6,O=C(/C(=C/O)N=Nc1ccc(Cl)cc1)c1ccncc1,"inconclusive: 35.5 µM [inhibitor, single point]"
7,CCOCCCN(C(=O)Cn1nnc(-c2ccc(OC)c(OC)c2)n1)C(CC)C(=O)NC1CCCC1 (centres undefined),"inconclusive: 17.8 µM [inhibitor, single point]"
8,COc1cc(Cl)c(C)cc1NC(=O)COC(=O)CCc1nc2ccccc2c(=O)[nH]1,inactive
9,CCOC(=O)c1ccc(N2C(=O)CC(N3CCC(C(N)=O)(N4CCCCC4)CC3)C2=O)cc1 (centres undefined),inactive
10,C=C1CCC(OC(C)=O)C2(C)CCC3C(C)C(=O)OC3C12O (centres undefined),inactive
11,CSC1=C(C#N)[C@H](C)CC(=O)N1,inactive
12,NS(=O)(=O)c1cc(C(=O)N2CCNC(=O)C2)ccc1Cl,inactive
13,CN(C)S(=O)(=O)c1ccc(-c2ccccc2)cc1,inactive
14,O=C(CCSc1nnc(-c2ccco2)o1)N1CCOCC1,"inconclusive: 5.62 µM [inhibitor, single point]"
15,C/C(=N\NC(=O)CSCc1ccc(Cl)cc1)c1ccc(NC(=O)c2ccccc2)cc1,inactive
16,O=C(CSc1nc2ccccc2o1)Nc1ccccc1,inactive
17,Cc1cc(F)ccc1S(=O)(=O)N1CCCOC1CNC(=O)C(=O)NC1CCCC1 (centres undefined),inactive
18,Cc1cccc(N2CCN(C(=O)c3ccncc3)CC2)c1C,"inconclusive: 1.46 µM [inhibitor, full curve]"
19,COc1c(S(=O)(=O)n2nc(C)cc2C)ccc(Cl)c1Cl,"inconclusive: 0.0046 µM [inhibitor, full curve, poor fit]"
20,Cc1nc(-c2ccccc2)cs1,inactive
21,O=C1N=C(N2CCCCC2)S/C1=C/C1=Cc2ccccc2OC1,"inconclusive: 5.62 µM [activator, full curve]"
22,CNC(=S)N(Cc1cccs1)Cc1cc2cc(OC)c(OC)cc2[nH]c1=O,"inconclusive: 0.631 µM [activator, partial curve, poor fit]"
23,COCCCNC(=O)c1c(NC(=O)c2cc(=O)c3ccccc3o2)sc2c1CCCC2,inactive
24,O=S(=O)(NCc1ccccc1)NCc1cccc(C(F)(F)F)c1,"inconclusive: 0.562 µM [inhibitor, full curve, poor fit]"
25,Cc1ccc(S(=O)(=O)NN=C2CC3CCC2(C)C3(C)C)cc1 (centres undefined),"inconclusive: 7.94 µM [inhibitor, partial curve, poor fit]"

row,Structure (SMILES),Potency
1,O=C(NN=Cc1cc([N+](=O)[O-])ccc1O)c1cccc2ccccc12,active: 10 µM
2,Cc1nnc(SCCC(=O)Nc2nc(-c3ccccc3)ns2)s1,inactive
3,Nc1ccc2c(c1)Cc1cc(N)c(Br)cc1-2,"inconclusive: 7.94 µM [activator, partial curve]"
4,C/C(=N\Nc1cccc(C(=O)O)c1)c1cc2ccccc2o1,"inconclusive: 3.55 µM [activator, single point]"
5,CS(=O)(=O)c1ccccc1-c1nnc(-c2ccc(Cl)cc2)o1,inactive
6,COc1cccc(CNc2ccc(N3CCCCC3)cc2)c1OC,"inconclusive: 8.91 µM [inhibitor, partial curve, poor fit]"
7,COc1ccc(-n2nc(C(=O)NCCc3ccc(OC)c(OC)c3)c3c4ccccc4n(C)c3c2=O)cc1Cl,"inconclusive: 6.31 µM [inhibitor, single point]"
8,CC(C)(C)C(=O)c1cn(CC(=O)O)c2ccccc12,inactive
9,O=c1c2cc(Br)ccc2nc(-c2cccc(C(F)(F)F)c2)n1O,"inconclusive: 31.6 µM [inhibitor, single point]"
10,COc1ccc(S(=O)(=O)N(n2c(C)nnc2-n2nc(C)cc2C)S(=O)(=O)c2ccc(OC)cc2)cc1,inactive
11,CC(C)(C)N1CC(c2nc3ccccc3n2CCOc2ccccc2)CC1=O (centres undefined),inactive
12,Cc1ccc(C)c(S(=O)(=O)ON2C(=O)c3ccccc3C2=O)c1,"inconclusive: 4.47 µM [inhibitor, full curve, poor fit]"
13,Cc1cc(NS(=O)(=O)c2ccc(NC(=O)c3ccco3)cc2)nc(C)n1,inactive
14,CCc1ccc(NC(=O)CSc2ccc(-c3ccco3)nn2)cc1,inactive
15,Cc1ccc(-c2c[n+](CC(=O)Nc3nc(-c4ccccc4)cs3)c3n2CCC3)cc1,inactive
16,CCc1ccc(S(=O)(=O)c2nnn3c2nc(Nc2cc(OC)cc(OC)c2)c2cc(Cl)ccc23)cc1,inactive
17,O=C(Oc1ccccc1-c1nnco1)c1ccccc1,"inconclusive: 1.26 µM [inhibitor, single point]"
18,CCN(CC)C(=O)Cn1cc(/C=C2\C(=O)NC(=O)N(c3ccccc3F)C2=O)c2ccccc21,"inconclusive: 35.5 µM [inhibitor, single point]"
19,COc1ccc2nc(NC(=O)CSC(C)C(=O)Nc3cc(C)on3)sc2c1 (centres undefined),"inconclusive: 10 µM [activator, partial curve, poor fit]"
20,Cc1ccc(-c2nc(S(=O)(=O)c3ccc(C)cc3)c(SCC(=O)Nc3ccc(F)cc3)o2)cc1,inactive
21,CCN(Cc1ccccc1)C(=O)c1cc2c(=O)oc3ccc(C)cc3c2s1,inactive
22,COc1ccccc1NS(=O)(=O)c1cc(NC(=O)CC(C)(C)C)ccc1N1CCOCC1,"inconclusive: 20 µM [inhibitor, single point]"
23,C/C(=N/NS(=O)(=O)c1ccc(C)cc1C)c1c[nH]c2ccccc12,"inconclusive: 10 µM [inhibitor, partial curve, poor fit]"
24,CC(C)OC(=O)c1cn(-c2ccccc2)nc1-c1ccc2c(c1)OCCO2,"inconclusive: 29.1 µM [inhibitor, single point]"
